Z-score data for 108 sequences are collected here from PubChem BioAssay AID1508600 (Functional Genomics Laboratory (NCATS/FGL), 2020).

The campaign covered roughly 53,000 sequences. About 3,700 (7%) were called active.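 Rule for the calls: active = gene knockdowns whose robust z-score for IL-1 alpha signal is at least 2 or at most -2, so actives lie on both sides; inactive = the rest.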 The list shows a part of the results.

A short description of this test: Components of the Cytosolic LPS Sensing Pathway: Gene Identification via Genome-wide siRNA Screen.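 Note: robust z of the log signal after scaling to non-targeting control siRNA wells of the plate.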 The note with it: RAW264.7 macrophages, IL-1a HTRF, actives lie on both sides, screened at 100 nM (by protocol), cells primed 5 h with Pam3CSK4 first. In outline:
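RAW264.7; siRNA 100 nM final, RNAiMAX, 48h 37 degrees C; Pam3CSK4 5 h; LipidA + TransIT-TKO 24 h; IL-1a HTRF; CellTiter-Glo viability; robust z vs negative-control median.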
(In general: Time-resolved FRET reads energy transfer from a long-lived donor to a nearby acceptor.)
As to GGAAUAUCUUCUGAUUGUCTT against Dynlrb2, the z-score is inactive: -0.393.

For GGAGUCAUAUCACAACUCATT against Ldb2, the z-score was inactive: 1.22.

With GGAACAGUCACAGACAGCUTT against Vps35l, the z-score is inactive: -0.189.

Regarding GGAUAUGACUAGGUGAAUUTT against Ebf3, the z-score was inactive: -1.04.

As for GGGAAUAUAAUUAAAGGUGTT against Sptlc2, the z-score was inactive: -0.653.

Consider GCCCAGCAUGGAUAGAUUATT against Mis18bp1, for which the z-score is inactive: 0.466.

For GGAAUUCAAGUUCAUCCUGTT against P2ry4, the z-score was inactive: 1.56.

GGAAAUUUUUUCCUUUCCUTT against Olfr211: the z-score is inactive: -0.638.

Take GGUCACAAGUGUAAUACUATT against Bag4: the z-score was inactive: 0.333.

On to GCACAUAGUGUAUCUAUACTT against Cd86, for which the z-score is inactive: -1.24.

Regarding GGACGUGACCAUGAUGUCUTT against Oacyl, the z-score was active: -3.46.

Regarding GGAGAAGAUCGGAUGGCGATT against Itgb5, the z-score was inactive: -1.79.

For CGCUUUCACGACAUGGAACTT against Tas1r1, the z-score is inactive: 0.304.

As for AGAGGAAGCUCGAAAACGGTT against Zrsr2, the z-score is inactive: -0.2.

GGCAAAAUCCCAUACGAAATT against Itk: the z-score is inactive: 0.0298.

Take CCACAGGUUACAACAUAAATT against Pign: the z-score was inactive: -1.45.

On to GGUAACCAUUUCUUCUGUUTT against Crym, for which the z-score is inactive: -0.289.

With GCAAUGGUUUCGGCUACGATT against Hoxb3, the z-score is active: 2.18.

Consider GCUGAGCAAUCUGUAGGGCTT against Spry3, for which the z-score was inactive: 0.884.

With GGAGUUCACUGUGCUGAUGTT against Ppbp, the z-score is inactive: -0.536.

In the case of GGGAAACUCUCAGAUGAAGTT against Sh2d7, the z-score was inactive: -1.9.

As for GGAUCUUCGUACUAGAGGCTT against Cenpx, the z-score is inactive: 0.0358.

Regarding CCCACCACGAAAACUUAUGTT against Hnrnph1, the z-score is inactive: 0.952.

In the case of GGCAAGAGCGGAAAAUCACTT against Foxo1, the z-score is inactive: -0.492.

Take GCUAGAUUUGAUGGUUCAGTT against Cacng5: the z-score is inactive: -1.62.

Regarding GGUUACGAAAAGCUGCCUUTT against Ints14, the z-score is inactive: -0.125.

As for GGUGAAGGUGAACAAGGACTT against Myh9, the z-score was active: 2.92.

Regarding GGGUAGAAUUGUUUUCCUUTT against Clic4, the z-score was inactive: 1.51.

Consider GGCUGUAAGGGAACAGCUATT against Irf2bp1, for which the z-score was inactive: -0.615.

Consider GGAUUCCAAGCUUUCGAAATT against Golim4, for which the z-score is inactive: 0.656.

Turning to GGACUGAACAGUAUUAAGUTT against Tmco3, the z-score was inactive: 0.575.

Regarding CCAGCUAUGAAUCAGAAUGTT against Bend6, the z-score was active: 2.6.

On to GGAGAGGACAAAUUAAAGATT against Ywhae, for which the z-score is inactive: 0.763.

Take GGGUGCAUUUAAGUUCUAATT against Nrbf2: the z-score was inactive: 1.49.

Turning to GCUGAAACAGUUUGAGCGATT against Bcar1, the z-score was inactive: 0.115.

On to GGAAACAACCUGCUGAUCGTT against Sp2, for which the z-score was inactive: 0.166.

Consider GGAGACCAUCAAGAAGAGCTT against Rbm47, for which the z-score is inactive: -1.36.

Consider GCUGGUCUAAUCUGGAAACTT against Tmed3, for which the z-score was inactive: -1.73.

For CGGAUGCCAUGCAGAACUATT against Tspan7, the z-score is inactive: 0.22.

On to GGAAAAUGAGAGAUUACGATT against Cntln, for which the z-score was inactive: 1.32.

In the case of GGCCAUUUUGGAUCAUACATT against Actl6a, the z-score was inactive: -1.06.

On to GGUUUGAGUGGAAAAUUCATT against Csn1s2b, for which the z-score is inactive: 0.904.

In the case of GCUUUCGGUGGAUUCCUUATT against Rars2, the z-score was inactive: -0.714.

On to “GGACUACAGAUGCAUACCATT against 9830163H01Rik”, for which the z-score was inactive: -0.234.

As for GGCAUGUUUGAGUUUCAGATT against Lsm4, the z-score was inactive: -0.22.

Take GGCAAUGAGAAAGUUACUCTT against Olfr1102: the z-score was inactive: 1.65.

GGAUCUGAAAGACUAUUUCTT against Tardbp: the z-score was inactive: -0.956.

GGGACACCUUCCGUAACUATT against Gcdh: the z-score was inactive: -0.832.

In the case of GCUCACACUUUAAAGAGGGTT against Supv3l1, the z-score is inactive: 0.524.

Regarding GGAUAUGGCCCAGUUCAUATT against Gfer, the z-score was inactive: -1.16.

Consider CCAGUCCUUGAAAAGAGCUTT against Olfr128, for which the z-score was active: -2.35.

In the case of GGAAAUUGGCACCAUUACUTT against St3gal1, the z-score was active: 2.14.

Take CCAAUCGUAAUGACAAUUCTT against Myo1d: the z-score is inactive: -0.857.

As to GGAAAGGAUACGAGACAAUTT against Kctd2, the z-score was inactive: 1.35.

On to GACAGUGAUCACUUGUGGUTT against Ly6g6d, for which the z-score is inactive: -0.369.

In the case of GCUUUGAUUCAUAAACAAGTT against Rmi1, the z-score was inactive: -0.585.

For GGUGGUGAAACUCAAGAUCTT against Zfp771, the z-score is inactive: -0.983.

As for GGUACAACUGUAAAUAUUCTT against Npc1, the z-score is inactive: 0.0905.

With GCUAAGAAACUGGUCUCAUTT against Reg4, the z-score was inactive: -0.151.

Take GGAUUUGUUUUCAGAUGUGTT against Zfp329: the z-score was inactive: -1.56.

As to GGAAGAUUCCUUAACCAAGTT against Setmar, the z-score is inactive: 0.214.

Consider GCCUAUCAUCGAGUGUGUATT against Gphb5, for which the z-score was inactive: 0.471.

As to GGUAUCUGCAUGUCUUAAUTT against Snx14, the z-score was inactive: 0.338.

Regarding CCGAUAUGUGAAAAUUAAGTT against Rpl32, the z-score is inactive: 0.673.

For GGAAUAUACGAAUCACAGATT against Tmprss12, the z-score was inactive: -1.11.

Take GGAAUUGAAAUGUCAGAAGTT against Pex2: the z-score was inactive: -0.989.

As for GCUUGUUUACAUCGGACUUTT against Samt2, the z-score was inactive: 0.9.

Regarding GUGCUAUGUGAAGAGCAGCTT against Klri1, the z-score is inactive: 0.419.

Consider GGAAAACGUGAUUUACACATT against Fcrl5, for which the z-score is inactive: 0.236.

For GCAAAAUGGGAUUUGUCAUTT against Grm1, the z-score was inactive: -0.448.

As to GGCUGAGAUCUAGCUUACATT against H3c15, the z-score is active: -3.21.

For CCAAGUCCAGCCUUUUGGUTT against Acsm1, the z-score was inactive: 0.295.

With GGUUACCUCAUUUGACGGATT against BC048671, the z-score is inactive: -0.731.

For GGAUGAAAGAGUUUCUGCATT against Spin1, the z-score was inactive: -0.945.

For the sequence GGCUUUAACUAAUUAUGGATT against Pcm1, the z-score was inactive: -0.649.

Regarding GGCGCAGUAAAGAGGAGAUTT against Ccnb3, the z-score was inactive: 1.4.

Regarding GGAAGUCGGGCAAAUACAATT against Tacstd2, the z-score is active: 5.77.

Regarding GGUCAAACUGAAGAAGGAGTT against Slc7a7, the z-score was inactive: -1.24.

Turning to GCUGCUGAGGUACUUGCUATT against Pcsk1n, the z-score was inactive: -0.98.

With GGAUACUGUAAGGAAUAAUTT against Orc4, the z-score was inactive: -1.23.

For CCAUUGAUCUCGUCUCCCATT against Impdh1, the z-score is inactive: -0.647.

As for CGAGUUAAGUAACAGGACATT against Mmgt2, the z-score is inactive: 1.44.

In the case of GCUUUUCUUCUUCAUCUCUTT against Olfr1336, the z-score was inactive: 0.698.

On to GAGUCAAAACAGCAGUGCATT against Cpsf4, for which the z-score was inactive: -0.27.

For GGGAGAGGAUCAGGUAAACTT against Chp1, the z-score was inactive: -0.49.

On to UAAAAAUGAGCCGGGCAAUTT against Ms4a5, for which the z-score was inactive: 1.42.

GGAGUUUCUGGAUGGUGGUTT against Prxl2b: the z-score is inactive: -0.168.

As for GGACUUCAAGUGGCUGAAGTT against St3gal3, the z-score was inactive: 1.09.

With GGUCCUUUACAUGAACCGCTT against Vps18, the z-score was inactive: -0.661.

Turning to GGCAAACCUGCUUUCAUGGTT against Smc5, the z-score is inactive: 0.282.

For the sequence GGUCAUGUACAAGAAAACCTT against Wfikkn2, the z-score was inactive: -0.633.

GGACCAAAACACUACCAAUTT against Tinag: the z-score was inactive: 0.648.

As to GGCCUUCAGCACUUGUGUGTT against Olfr585, the z-score was inactive: -1.33.

For the sequence GGAUAUCACAUUUGUUGCUTT against Anapc4, the z-score was inactive: 0.888.

In the case of GGUCACGAUGUAGCACGCUTT against Mtg1, the z-score was inactive: 0.996.

Turning to GGUAAAGAUCUGGAGACGATT against Pgam1, the z-score was inactive: -0.727.

For the sequence GGCAAAUCUGAACAACAUUTT against Agt, the z-score is inactive: 1.16.

GGCUUUGAACACCAGUGAATT against Rpp21: the z-score is inactive: -0.453.

With GGAAUGUCUCUCUGAAAUATT against Greb1, the z-score is inactive: 0.957.

As for GGUAUUUCACUGGAAGACUTT against Trdmt1, the z-score was inactive: 0.0369.

On to GCAGCUUGCUUGAUUCAAGTT against Iqcb1, for which the z-score was inactive: 0.424.

CGUUUUGUAUAUAUCUGACTT against Kdm6a: the z-score was inactive: -1.17.

For GUUUGGCCGAGUUCAUUUCTT against Pigu, the z-score was inactive: 0.759.

Regarding CCAUCUCAUUCCUUACCAGTT against Gm4736, the z-score is inactive: -1.79.

Take GGCGUACAGGCAAAAAGCATT against Dnajc17: the z-score is inactive: -0.4.

In the case of GGAACAGACAGAGAACACATT against Tgm6, the z-score was active: 2.54.

Take GGAGCACCUUCAGAAAGUUTT against Commd5: the z-score was inactive: -0.604.

Regarding GGUUACAUCAUCUUAACACTT against Pif1, the z-score is inactive: -0.368.
